Library screening results

Source: ChEMBL document CHEMBL3988442, “University of Dundee, Small-Polar-MMV Screening Library” (2021).

Mtb growth Cornell: 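Whole-cell assay for inhibitors of Mycobacterium tuberculosis growth, labelled Cornell in the record; the read-out is not stated. The concentration is filed as 10 mM, unlikely as a test dose, so the dose is not known. The record gives no direction; compounds strong in two other growth screens of this library score well above the rest, so higher reads as stronger inhibition. Of about 53,000 compounds tested this way, about 900 (1.7%) reached 50% or more in at least one test.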
Mtb heat-shock: 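Assay on Mycobacterium tuberculosis, filed only as a heat shock assay from Cornell; the read-out is not stated. The concentration is filed as 10 mM, unlikely as a test dose, so the dose is not known. The record gives no direction; compounds that gave an IC50 in retests scored well above the rest, so higher reads as stronger inhibition. About 69,000 compounds were tested under these conditions; 1.4% (about 930) showed 50% or more at least once.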

Values are the deposited “Percent Effect”, in %. The record does not define 0% and 100%; most values in the screen are far below 50% and negative numbers occur (in some assays of this library far below -100). Compounds were drawn at random from those tested, without regard to their results.

For [H][C@]12CN(C(=O)c3ccc(C)o3)C[C@@]1([H])OCCN(S(C)(=O)=O)C2 the result was Mtb growth Cornell: 4.842%; Mtb heat-shock: -23.49%.
For CC(C)NC(=O)N1CCCCC1c1nnc2n1CCNC2 (centres unmarked) the result was Mtb heat-shock: -9.838%.
For CC(C)(C)S(=O)(=O)c1ccc(N2CCN(c3ccccc3)CC2)nn1 the result was Mtb growth Cornell: -17.53%; Mtb heat-shock: 11.05%.
For CCOC(=O)CCC(=O)N1CCC(CSCc2ccco2)CC1 the result was Mtb growth Cornell: 59.48%; Mtb heat-shock: 18.14%.
For [H][C@@]12CN(CC(C)C)C[C@]1([H])OCC(=O)N2Cc1nccn1C the result was Mtb growth Cornell: -40.98%; Mtb heat-shock: -26.11%.
For Cc1cccc(N2CCN(CCS(=O)(=O)c3ccc(Br)cc3)CC2)c1C the result was Mtb growth Cornell: 4.388%; Mtb heat-shock: -30.07%.
For Cc1ccc(CN2CCN(C(=O)c3ccc(Br)o3)CC2)cc1 the result was Mtb growth Cornell: 24.46%; Mtb heat-shock: -13.97%.
For O=C(O)C(F)(F)F.O=C(c1cocn1)N1CCC2(CC1)COC(COCc1ccccn1)C2 (centres unmarked) the result was Mtb growth Cornell: 9.754%; Mtb heat-shock: -24%.
For O=C(O)C(F)(F)F.[H][C@]12C[C@H](C(=O)NC)N(C)[C@@]1([H])CN(S(=O)(=O)c1cccc(C)c1)C2 the result was Mtb growth Cornell: 15.71%; Mtb heat-shock: -28.25%.
For CNc1nc(C(=O)N2CCCC(c3nccn3CC3CCC3)C2)cs1 (centres unmarked) the result was Mtb growth Cornell: -65.98%; Mtb heat-shock: -4.13%.
For CCOc1ccnc(N2CCN(C(=O)CCc3ccncc3)CC2)n1 the result was Mtb growth Cornell: 30.73%; Mtb heat-shock: -20.87%.
For Cc1ccc2nc(CN(Cc3ccc(C#N)cc3)C(C)C)cc(=O)n2c1 the result was Mtb heat-shock: 11.27%.
For CCOc1ccc(C#N)cc1NC(=O)N1CCC(N2CCCC2)C1 (centres unmarked) the result was Mtb heat-shock: -11.77%.
For CCN1CCn2c(C)cnc2C12CCN(C(=O)c1cscn1)CC2.O=C(O)C(F)(F)F.O=C(O)C(F)(F)F the result was Mtb growth Cornell: -12.15%; Mtb heat-shock: 4.799%.
For CN(Cc1ccccc1)CC(O)Cn1cnc2ccc(Br)cc2c1=O (centres unmarked) the result was Mtb heat-shock: 2.857%.
For CC(O)CN1CCN(C(=O)CCOC(C)C)CC1 (centres unmarked) the result was Mtb heat-shock: -23.29%.
For Cn1cc(Cl)cc1C(=O)N1CCN(Cc2ccsc2)CC1 the result was Mtb heat-shock: 7.263%.
For OC(CN(Cc1ccccc1)Cc1cscn1)c1cccs1 (centres unmarked) the result was Mtb growth Cornell: -4.126%; Mtb heat-shock: 5.463%.
For [H][C@@]12CCN(C(=O)C(C)C)CC[C@]1(C(=O)Nc1ccccc1)CCN2C the result was Mtb growth Cornell: -25.86%; Mtb heat-shock: 41.29%.
For O=c1c(Cc2ccccc2)c(O)ccn1Cc1ccco1 the result was Mtb growth Cornell: 1.722%; Mtb heat-shock: 11.75%.
For CC(c1nc(C2CC2)no1)N(C)Cc1ccc(Cl)cc1 (centres unmarked) the result was Mtb growth Cornell: 17.77%; Mtb heat-shock: -3.731%.
For CC(C)(C)OC(=O)NCC1CCCCN1Cc1ccccn1 (centres unmarked) the result was Mtb heat-shock: 15.95%.
For Cn1ccnc1-c1cn(CCCc2nnc(N)s2)nn1 the result was Mtb growth Cornell: -17.79%; Mtb heat-shock: -5.328%.
For O=C(c1ccoc1)N1CCc2c(COCC3CC3)cncc2C1 the result was Mtb growth Cornell: -43.45%; Mtb heat-shock: -13.83%.
For Cc1ccsc1CN(C)c1cc(N2CCCC2CO)ncn1 (centres unmarked) the result was Mtb growth Cornell: 6.86%; Mtb heat-shock: -15.57%.
For COCCN1CCCC(O)(CN2CCN(c3ncccc3C)CC2)C1=O (centres unmarked) the result was Mtb heat-shock: -5.482%.
For COc1cccc(CNCc2ccnc(N3CCOCC3)c2)c1OC the result was Mtb growth Cornell: 13.13%; Mtb heat-shock: -6.903%.
For [H][C@]12CC[C@]([H])(CN(S(=O)(=O)N(C)C)C1)N(C/C=C/c1ccc(F)cc1)C2 the result was Mtb heat-shock: -15.98%.
For O=C(CCc1ccccn1)N1CCCC(n2cncn2)C1 (centres unmarked) the result was Mtb growth Cornell: -33.75%; Mtb heat-shock: -9.981%.
For COCCc1noc(CN2CC(Cc3ccccc3)CC2=O)n1 (centres unmarked) the result was Mtb growth Cornell: 11.24%; Mtb heat-shock: -9.542%.
For Cc1nc(N(C)Cc2cccc(O)c2)nc2cc(S(C)(=O)=O)ccc12 the result was Mtb growth Cornell: 29.22%; Mtb heat-shock: 14.74%.
For CCc1cc(CNC(=O)N2CCN(c3nc(C)c(C)s3)CC2)on1 the result was Mtb growth Cornell: 22.52%; Mtb heat-shock: -26.6%.
For Cc1n[nH]c(C)c1NC(=O)CCc1cccc(C2CCCN(C)C2)n1 (centres unmarked) the result was Mtb growth Cornell: -22.76%; Mtb heat-shock: -3.237%.
For CCS(=O)(=O)N1CCC2(CN(c3ccsc3)C(=O)CN2C)C1.O=C(O)C(F)(F)F (centres unmarked) the result was Mtb growth Cornell: 12.06%; Mtb heat-shock: -45.01%.
For COc1cccc(CN(C)Cc2c(C)noc2C)c1OC the result was Mtb growth Cornell: -9.272%; Mtb heat-shock: -23.07%.
For COCCN(C)CC1CCCN1S(=O)(=O)Cc1ccccc1F (centres unmarked) the result was Mtb growth Cornell: -86.08%; Mtb heat-shock: -28.55%.
For C[C@H](O)CNc1cc(-c2cn[nH]c2)ncn1 the result was Mtb growth Cornell: -34.17%; Mtb heat-shock: -16.73%.
For CS(=O)(=O)NCCN1CCOC2(CCc3ccccc32)C1 (centres unmarked) the result was Mtb growth Cornell: -23%; Mtb heat-shock: -10.26%.
For CN1[C@H](CO)C[C@H](CNCc2ccc(CO)o2)[C@@H]1c1ccccc1F the result was Mtb heat-shock: -26.95%.
For CC1c2ncc(Cn3cccn3)n2CCN1Cc1ccccn1.O=C(O)C(F)(F)F.O=C(O)C(F)(F)F (centres unmarked) the result was Mtb growth Cornell: 1.464%; Mtb heat-shock: 8.011%.
For [H][C@@]12C[C@@H](OC)C[C@]1([H])CN(C(=O)c1n[nH]c3c1CCCC3)C2 the result was Mtb growth Cornell: -12.14%; Mtb heat-shock: -12.29%.
For Cc1ccc(CNCC2Cn3nncc3CO2)o1 (centres unmarked) the result was Mtb growth Cornell: -9.14%; Mtb heat-shock: 4.455%.
For Cc1cnn(CCC(=O)NS(=O)(=O)N2CCc3ccccc32)c1 the result was Mtb growth Cornell: 2.546%; Mtb heat-shock: 1.416%.
For CC(C)N(C)Cc1cncc2c1CCN(Cc1cccs1)C2.Cl.Cl.Cl the result was Mtb growth Cornell: -5.456%; Mtb heat-shock: 5.33%.

For reference, 4 entries once more:

{"smiles": "CC(O)CN1CCN(C(=O)CCOC(C)C)CC1", "stereo": "centres unmarked", "Mtb heat-shock": -23.29}
{"smiles": "COCCc1noc(CN2CC(Cc3ccccc3)CC2=O)n1", "stereo": "centres unmarked", "Mtb growth Cornell": 11.24, "Mtb heat-shock": -9.542}
{"smiles": "Cn1cc(Cl)cc1C(=O)N1CCN(Cc2ccsc2)CC1", "Mtb heat-shock": 7.263}
{"smiles": "Cn1ccnc1-c1cn(CCCc2nnc(N)s2)nn1", "Mtb growth Cornell": -17.79, "Mtb heat-shock": -5.328}